Assay results taken from PubChem BioAssay AID2685 (National Center for Advancing Translational Sciences (NCATS), 2010).
This is one part of the list. Further columns of the screen follow, without active or inactive calls. Compounds called inactive in the main read-out are mostly missing here. Potencies come from curve fits of mixed quality, noted in brackets.

Assay: qHTS Assay for Lipid Storage Modulators in Drosophila S3 Cells;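 as to cell number change: cells counted by Cell Tracker Red CMTPX staining in the red channel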
Settings: BODIPY lipid droplet fluorescence, 18-24 h; for cell number change: measured here: cell count max response, cells fed with added oleic acid
In short: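 Drosophila S3 cells loaded with oleic acid (400 uM, as added) and compounds at several concentrations; lipid droplets imaged by 488-nm laser-scanning cytometry, 500–530 nm intensity and object ratio to cell channel. Percent activity normalized to 20 uM Triacsin C.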

[1] = measured here: lipid fluorescence (Fed channel) AC50, cells fed with added oleic acid
[2] = measured here: cell number channel AC50, cells fed with added oleic acid

SMILES | cell number change [%] | AC50 [1] | AC50 [2]
CCOC(=O)N1CCN(S(=O)(=O)c2ccc(F)c(C(=O)Nc3ccc(C)c(Cl)c3)c2)CC1 | -8.98 | – | –
Cc1nn(Cc2noc(C(=O)NCCCn3ccnc3)n2)c(C)c1Br | – | 0.13 µM [rising, full curve, poor fit] | –
C=CCNC(=O)/C(C#N)=C/c1ccc(SC)cc1 | 35.4 | – | –
COc1cccc(COC(=O)c2ccc(S(=O)(=O)N3CCC(C)CC3)cc2)c1OC | -1.81 | – | –
CC(C)N(Cc1ccccc1)C(=O)C1CCCN(c2ncnc3c2nc2n3CCCCC2)C1 (stereo not given) | -43.5 | 3.26 µM [falling, partial curve] | 32.6 µM [falling, single point]
C[C@H](NC(=O)c1nc[nH]c1C(=O)N[C@@H](CCCCN)C(=O)OC(C)(C)C)C(=O)OC(C)(C)C | -46.6 | 18.4 µM [rising, partial curve] | 10.3 µM [falling, partial curve, poor fit]
CC(C)(C)C(=O)Nc1ccc(C(=O)N/N=C/C2CC3C=CC2C3)cc1 (stereo not given) | 16.2 | 2.06 µM [rising, full curve, poor fit] | –
Cc1ccc(NC(=O)CCC(=O)c2cccs2)cc1 | 40.6 | – | 20.6 µM [rising, single point]
COc1cc(C(=O)NNC(=O)c2cc(-c3ccccc3)n[nH]2)cc(OC)c1C | -24.8 | 20.6 µM [falling, single point] | –
CCCCCCSc1ccc([C@@H]2[C@@H]3C(=O)N(CC)C(=O)[C@@H]3[C@]3(C(=O)OC)CCCCN23)cc1OC | -59.2 | 11.6 µM [falling, partial curve] | 18.4 µM [falling, single point]
Cc1[nH]n(-c2ccccc2)c(=O)c1C=Nc1cnc2ccccc2c1 | -16.6 | 2.31 µM [falling, partial curve, poor fit] | –
CCn1c(=O)c2cc(C(=O)NCCC(C)C)sc2c2ccccc21 | 16.2 | – | –
CC(=O)Oc1cccc(C(=O)Nc2ccccc2C(=O)N2CCCC2)c1 | 37.3 | – | 29.1 µM [rising, single point]
Cc1ccc(S(=O)(=O)N2CCC(C(=O)N[C@H](C(=O)NCc3ccco3)C(C)C)CC2)cc1 | 31.5 | 0.13 µM [falling, full curve, poor fit] | 3.66 µM [rising, partial curve]
Cc1cc(Cl)ccc1OCC(=O)Nc1ccncc1 | -34.9 | – | 10.3 µM [falling, partial curve]
COC(=O)c1ccc(NC(=O)COc2cccc(-n3cnnn3)c2)cc1 | -8.85 | 0.58 µM [rising, single point] | –
Cc1ncc(CO)c2c1Oc1nc(-c3ccccc3)nc(SCC(=O)N(C)c3ccccc3)c1C2 | -7.67 | 29.1 µM [falling, single point] | –
Cc1ccccc1NC(=O)Cn1c([N+](=O)[O-])cnc1C | 93.8 | 3.66 µM [rising, full curve] | 25.9 µM [rising, single point]
Brc1ccccc1Cn1c(-c2cscn2)nc2ccccc21 | 70.3 | 1.3 µM [rising, partial curve] | 3.26 µM [rising, full curve]
CCOC(=O)N1CCN(S(=O)(=O)c2ccc(C(=O)N(CCCN(C)C)c3nc4ccc(OC)cc4s3)cc2)CC1 | 32.3 | – | –

SMILES | cell number change [%] | AC50 [1] | AC50 [2]
COCCCNC(=O)C(=O)N/N=C/c1cc2c(cc1Br)OCO2 | 113 | 29.1 µM [rising, partial curve] | 32.6 µM [rising, partial curve, poor fit]
Cc1ccc(-n2c3c(cc(C(=O)NCc4ccco4)c2=O)C(=O)CC(C)(C)C3)cc1 | -11.7 | 29.1 µM [falling, single point] | –
CC(O)c1nc2ccccc2n1Cc1nnc(-c2ccc(Cl)cc2)o1 (stereo not given) | 3.04 | – | 2.91 µM [rising, partial curve, poor fit]
COc1ccc(C2CC(=O)c3cnc(N4CCN(Cc5ccccc5)CC4)nc3C2)cc1 (stereo not given) | -33.9 | – | 0.58 µM [falling, full curve, poor fit]
COCCC(=O)N1CCC(Oc2ccc(C(=O)NCc3csc(C)n3)cc2)CC1 | – | 6.51 µM [rising, single point] | –
CN1C(=O)/C(=C2/C=Cc3ccccc3N2CCCS(=O)(=O)O)SC1=S | -0.443 | 18.4 µM [falling, single point] | –
Cc1ccc(-c2nn(-c3ccccc3)cc2C2SCC(=O)N2Cc2ccccc2)o1 (stereo not given) | 4.06 | – | –
Cc1ccc(S(=O)(=O)Nc2nc(C)c(C(=O)N/N=C/c3ccccc3)s2)cc1 | 29.1 | 29.1 µM [rising, single point] | –
COC(=O)c1c(NC(=O)CC2SC(N)=NC2=O)sc2c1CCC(C)C2 (stereo not given) | 17.2 | – | 6.51 µM [falling, single point]
Cc1noc(C)c1COc1ccccc1C(=O)N1CCN(S(=O)(=O)c2cccc(Cl)c2)CC1 | 37.7 | – | 4.11 µM [rising, full curve, poor fit]
CCN1C(=NCCOC)N[C@@H](c2cccs2)C(C(=O)OC)=C1C | 3.59 | – | –
O=C(O)c1ccc2c(c1)C(=O)N(NC(=O)c1ccc(O)cc1)C2=O | -25.1 | 0.651 µM [falling, full curve] | 0.651 µM [falling, full curve, poor fit]
Cn1nnnc1SCC(=O)NCc1ccco1 | -28.9 | 29.1 µM [falling, single point] | –
COc1ccc(OCc2cc(C(=O)N3CCCC(OC)C3)no2)c2ccccc12 (stereo not given) | 14.9 | 16.4 µM [rising, single point] | –
COC(=O)c1ccc(OCCOCCOc2cccc3ccc(C)nc23)cc1 | 20.6 | – | –
Cc1ccc(NC(=O)CCNC(=O)Nc2ccccc2)cc1S(=O)(=O)N(C)C | -50.7 | 29.1 µM [falling, single point] | 29.1 µM [falling, single point]
O=C(NC(=S)N1CCCCCC1)C1CC1 | – | – | 0.58 µM [falling, single point]
O=C(NNC(=O)C1CC(c2cccs2)=NO1)NC1CCCCC1 (stereo not given) | 51.7 | 23.1 µM [rising, partial curve, poor fit] | –
O=C(NC1CC2CCCC(C1)N2Cc1cccs1)c1ccc([N+](=O)[O-])cc1 (stereo not given) | -20.1 | 29.1 µM [rising, partial curve, poor fit] | –
CCN(Cc1ccccc1)S(=O)(=O)c1cc(C(=O)NC(C)C2CC3CCC2C3)ccc1OC (stereo not given) | 50 | – | 32.6 µM [rising, single point]

Reformatted with tabs: 15 of the compounds above
SMILES	cell number change [%]	AC50 [1]	AC50 [2]
COc1cccc(COC(=O)c2ccc(S(=O)(=O)N3CCC(C)CC3)cc2)c1OC	-1.81	–	–
CC(C)N(Cc1ccccc1)C(=O)C1CCCN(c2ncnc3c2nc2n3CCCCC2)C1 (stereo not given)	-43.5	3.26 µM [falling, partial curve]	32.6 µM [falling, single point]
C[C@H](NC(=O)c1nc[nH]c1C(=O)N[C@@H](CCCCN)C(=O)OC(C)(C)C)C(=O)OC(C)(C)C	-46.6	18.4 µM [rising, partial curve]	10.3 µM [falling, partial curve, poor fit]
CC(C)(C)C(=O)Nc1ccc(C(=O)N/N=C/C2CC3C=CC2C3)cc1 (stereo not given)	16.2	2.06 µM [rising, full curve, poor fit]	–
Cc1ccc(NC(=O)CCC(=O)c2cccs2)cc1	40.6	–	20.6 µM [rising, single point]
COc1cc(C(=O)NNC(=O)c2cc(-c3ccccc3)n[nH]2)cc(OC)c1C	-24.8	20.6 µM [falling, single point]	–
CCCCCCSc1ccc([C@@H]2[C@@H]3C(=O)N(CC)C(=O)[C@@H]3[C@]3(C(=O)OC)CCCCN23)cc1OC	-59.2	11.6 µM [falling, partial curve]	18.4 µM [falling, single point]
Cc1[nH]n(-c2ccccc2)c(=O)c1C=Nc1cnc2ccccc2c1	-16.6	2.31 µM [falling, partial curve, poor fit]	–
CCn1c(=O)c2cc(C(=O)NCCC(C)C)sc2c2ccccc21	16.2	–	–
CC(=O)Oc1cccc(C(=O)Nc2ccccc2C(=O)N2CCCC2)c1	37.3	–	29.1 µM [rising, single point]
Cc1ccc(S(=O)(=O)N2CCC(C(=O)N[C@H](C(=O)NCc3ccco3)C(C)C)CC2)cc1	31.5	0.13 µM [falling, full curve, poor fit]	3.66 µM [rising, partial curve]
Cc1cc(Cl)ccc1OCC(=O)Nc1ccncc1	-34.9	–	10.3 µM [falling, partial curve]
COC(=O)c1ccc(NC(=O)COc2cccc(-n3cnnn3)c2)cc1	-8.85	0.58 µM [rising, single point]	–
Cc1ncc(CO)c2c1Oc1nc(-c3ccccc3)nc(SCC(=O)N(C)c3ccccc3)c1C2	-7.67	29.1 µM [falling, single point]	–
Cc1ccccc1NC(=O)Cn1c([N+](=O)[O-])cnc1C	93.8	3.66 µM [rising, full curve]	25.9 µM [rising, single point]

Additional results follow.

SMILES | cell number change [%] | AC50 [1] | AC50 [2]
COC(=O)c1cc(C(=O)OCC(=O)NC2CCCCCCC2)cc([N+](=O)[O-])c1 | -23 | 0.0058 µM [falling, full curve] | –
O=C(NCc1ccc(Cl)cc1)c1ccc(Cl)cc1[N+](=O)[O-] | 158 | 3.66 µM [falling, partial curve, poor fit] | –
COc1cccc(C2C(C(=O)OCc3ccccc3)=C(C)Nc3ncnn32)c1OC (stereo not given) | 1.84 | 1.3 µM [falling, full curve] | –
CN=c1scc(-c2ccccc2F)n1/N=C/c1ccc[nH]1 | – | 0.326 µM [rising, single point] | –
Cc1cc(NC2CCCC2)n2ncc(-c3ccccc3)c2n1 | 79.2 | 29.1 µM [falling, single point] | 25.9 µM [rising, partial curve]
CN(CCC#N)C(=O)COc1ccc(Br)cc1Cl | 84.6 | – | 25.9 µM [rising, single point]
COc1ccc(S(=O)(=O)NCC(c2ccc(F)cc2)N2CCN(C)CC2)cc1 (stereo not given) | -32 | 5.8 µM [falling, full curve] | 0.651 µM [falling, full curve, poor fit]
O=C(CN1CCCCCC1)NCc1ccccc1 | -15.4 | 0.731 µM [rising, single point] | –
CC12CC3(C)CC(C)(C1)CC(C(=O)NCc1cccnc1)(C2)C3 | – | 6.51 µM [rising, single point] | –
O=C(N/N=C/c1ccccc1O)C1CC(=O)N(c2ccc(Cl)cc2)C1 (stereo not given) | 18.5 | 29.1 µM [falling, single point] | –
CC(C)c1[nH]c(=O)c(C#N)c2c1CSC(C)(C)C2 | -30.7 | 0.366 µM [falling, partial curve, poor fit] | 4.11 µM [falling, full curve]
COc1ccc(OC)c(NC(=O)CN2C(=O)COc3ccc(C)cc32)c1 | 2.04 | 5.17 µM [rising, single point] | –
CCc1c(C)nc2ncnn2c1N1CCC(C(=O)Nc2ccccc2)CC1 | – | 29.1 µM [rising, partial curve] | 4.11 µM [rising, single point]
CC1(C)C2CCC1(CS(=O)(=O)Nc1cccc(S(N)(=O)=O)c1)C(=O)C2 (stereo not given) | 16.5 | 5.8 µM [falling, single point] | 6.51 µM [falling, single point]
COc1cc(C(=O)N2CCC(NC(=O)C(Cc3ccccc3)NC(C)=O)CC2)cc(OC)c1OC (stereo not given) | 5.02 | 29.1 µM [rising, single point] | –
O=C(c1ccco1)N1CCN(S(=O)(=O)c2cccs2)CC1 | -12.2 | – | –
Cc1ccc(N2C(=O)CC(Sc3ccccc3C(=O)O)C2=O)cc1 (stereo not given) | -13.9 | – | –
COc1ccc(OC)c(NC(=O)Cn2c(=O)n(CC(=O)NCc3ccco3)c(=O)c3ccccc32)c1 | 87.1 | 2.31 µM [rising, partial curve] | 7.31 µM [rising, partial curve]
